Assay results taken from paper doi:10.1101/2024.05.31.596839.
These are yes or no findings as the source states them, for the method shown. Some results given as binding are weak or reduced against the parent protein; the word gives no strength.

Biological target: T1, SoYb (Drosophila) (UniProt Q9VL52)
T1 sequence: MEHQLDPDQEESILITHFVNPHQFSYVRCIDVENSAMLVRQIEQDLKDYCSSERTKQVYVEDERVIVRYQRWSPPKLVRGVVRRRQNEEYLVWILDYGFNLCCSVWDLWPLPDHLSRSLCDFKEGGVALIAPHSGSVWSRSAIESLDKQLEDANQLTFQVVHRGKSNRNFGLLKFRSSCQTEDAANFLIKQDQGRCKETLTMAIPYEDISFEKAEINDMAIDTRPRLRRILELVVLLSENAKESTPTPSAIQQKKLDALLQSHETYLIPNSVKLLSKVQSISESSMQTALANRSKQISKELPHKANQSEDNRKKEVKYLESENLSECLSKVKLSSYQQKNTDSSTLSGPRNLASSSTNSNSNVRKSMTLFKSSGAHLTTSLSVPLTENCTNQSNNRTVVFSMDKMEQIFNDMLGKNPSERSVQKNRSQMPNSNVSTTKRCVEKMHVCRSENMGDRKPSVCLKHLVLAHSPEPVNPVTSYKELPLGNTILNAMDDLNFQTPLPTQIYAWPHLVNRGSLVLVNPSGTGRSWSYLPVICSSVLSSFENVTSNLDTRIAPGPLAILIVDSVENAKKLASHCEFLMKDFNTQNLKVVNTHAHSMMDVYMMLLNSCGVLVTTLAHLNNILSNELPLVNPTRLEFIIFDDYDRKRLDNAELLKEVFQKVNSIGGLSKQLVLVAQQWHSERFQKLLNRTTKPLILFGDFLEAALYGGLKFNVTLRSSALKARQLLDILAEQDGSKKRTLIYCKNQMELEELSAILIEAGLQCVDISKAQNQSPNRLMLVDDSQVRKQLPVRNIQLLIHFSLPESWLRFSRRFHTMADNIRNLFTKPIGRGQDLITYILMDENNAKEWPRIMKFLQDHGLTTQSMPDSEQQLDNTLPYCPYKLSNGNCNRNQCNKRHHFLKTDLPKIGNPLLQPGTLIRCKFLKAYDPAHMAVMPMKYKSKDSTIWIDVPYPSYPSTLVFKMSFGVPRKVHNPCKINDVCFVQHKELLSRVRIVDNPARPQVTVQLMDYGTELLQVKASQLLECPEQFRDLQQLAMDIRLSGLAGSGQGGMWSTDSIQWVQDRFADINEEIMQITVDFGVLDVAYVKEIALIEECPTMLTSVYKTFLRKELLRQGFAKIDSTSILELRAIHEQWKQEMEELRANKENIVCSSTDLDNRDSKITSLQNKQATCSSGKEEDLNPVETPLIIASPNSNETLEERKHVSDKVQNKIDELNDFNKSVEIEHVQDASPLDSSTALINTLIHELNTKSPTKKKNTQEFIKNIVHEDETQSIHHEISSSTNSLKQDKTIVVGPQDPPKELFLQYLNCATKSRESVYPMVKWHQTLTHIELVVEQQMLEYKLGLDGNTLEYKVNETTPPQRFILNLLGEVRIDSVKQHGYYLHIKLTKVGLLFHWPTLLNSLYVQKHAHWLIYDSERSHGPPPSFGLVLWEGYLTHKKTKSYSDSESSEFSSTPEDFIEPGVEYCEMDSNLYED
Experiment: ReLo

- binding: binds
B1: Vreteno (protein, UniProt Q9VCU7 1-691)
chain: MESESSQDDWSAFDPMSREYYDQVGNRYTNESGQKLIMEAPLPPKDEKEQRATRQAKYPYLVVPKSSPYVTEKMLINFFGRALIKEMEFRRLSRVYFVYFENIASLETAQQRVQRYPNLIKCITGRPQKEREITSDPVTSTEPMPTPGPAISATERTPVNHNREVPISTGGQNHPEFFRPPLVTKDDYKRGSLLATNDPIQRYLNVKYEFALERHDIYKLKDETRIPQVVLHFRSGRTIPLSTVAVTEEDKTKSLLEDGVSKCVVCQNWTDTFCKLCKMPFCNASCFADVAEQHKQACGKGEILNLDEKVGRKYPKPGLPPSGSKVRITAFEQTNVVYVRSADIQIDIAYYTVLTEVMMLGKDASKLQSTPVCGQIVLYKFEGHMSRAMVLNVDNIKEIYVVFIDFGSVEVTQLERLYECSSYLAGLTCYPVAVKLRGVPRRFVGPNIREVMYELDQSLVFNIKYSSREYDTSKGMQVVVMTEIDINRSLNRLFKTILTPVEPSVSDLGYKEDCLPYIPLHCGKNINVVVMDNTFIQCGFIYCTSIDLAYEVTKMQRDIQEYGEKIAKCATYAPPINELCIAKYEGKWRRGLSVELVGDGYPSILFIDYGNIVPTHVTDIRPYPPQFIFPIMTTQLDLIGVPEKPTDEQIKWLDKNYPIGSVITCSEITFDEETNSYSTRIEKLQEFLSLD
